Reference: paper PMC12282152

Molecular target: Ras GTPase-activating protein binding protein 1 (G3BP1) (African green monkey (endogenous in MA104))
Assay: affinity purification with mass spectrometry; whole-cell lysates of mock-infected or SHFV-infected (MOI 0.1, 24 h) MA104 cells in IP lysis buffer (25 mM Tris-HCl pH 7.4, 150 mM NaCl, 1 mM EDTA, 1% NP-40, 5% glycerol); rabbit anti-G3BP1 antibody, Protein A magnetic beads, overnight at 4°C; LC-MS/MS, enrichment compared between mock and infected

B1: SHFV nsp2 (made in infected cells) (protein, UniProt Q68772 351-1236)
chain: GNASSVSWPEWKYDEQLLYADSLTAGFCWLQLFPPLSRKSEAQRAILAQQVNNYGVTGTYLEYRLRQYGIVLAECDYGEHYIYAAASDSSIRHISPVPIHDRHHVFVTRLTARFGAFDEGFDLGFGTRYGRRRGGGKKSGQSSGVRAPGRTTPDLAGDWGKAVDDQEKTASKVTTDKAMSTSEPAVVQVGCETKPVADAAAVPASVNSTGCALLPVQADPCCTAGVAAKESEPKAVAAPSIPITFGAPAGETLPVAASPLVVKKDKRCISVKLTAKKALPKETFIPPPDGGCGVHAFAAIQYHINTGHWPEQKPVVNWAYEAWTTNEDIGHMICSTETPAALEPCLHARYVVRLDSDHWVVDHYPNRPMCFVEACAHGWCSSLLSEPTGEEGEHLVDCSALYDCLGKFRNGTEFADTVLGLSKTAHCCNKRVPTPRKQAIMSLLNRPNCVPCIAPPSQVRTVDPSQPAAPLPPVPRPRKRKAAAQQVSKVPSEQDPSLAHDPPEKPDSVRPPKLGYLDRAWNNMLARTHKLHNLQQRVFGLYPQLLSMLLPSGARPSTPRLLGCYFSMAVAMFFLFLGSPLFILCAVLAGVIAPSARYPKILCCCLVVVYICTLFADAISSVCDNDDADCRAFLSDLGDRYSTNQPVYITPGPATFFLAVSRNFFVVSVALFPLHLLLLMVDVLLVIGVLCMDGYCFRCFSRCVRKAPEEVSLLTIPQSRVSRRFLLDICDFYSAPPVDIIRLATGLNGCFRGDYSPIGSSTSVITADKIDVKKVSCRTVCSFPSCPSEAVKVLHVLSVRGQMCAHNEQKVEKVDALPCKNPLFPYDLSSKKIVPVDSGTYEILSSIGCDMSHLVIGDGDFFKVMGVPRPSPFTVMRLRACRVVGG
binding: binds

No constants are given. Whether binding was seen depends on the method and setting. Binding seen in cells or lysates may run through a third protein. Here binding means that the protein was enriched with, or labelled near, the bait; the list need not be complete.
